# Measured values taken from PubChem BioAssay (NCATS).
# “And” between values parts separate entries of the source, which are not always exact repeats. Identical values can stand only once. This list was built around the results that the source calls inconclusive (neither active nor inactive); the mix of calls is not that of the screen. Potencies beside an inconclusive call are fits to weak or partial responses and may not hold up. The source made the active and inactive calls. Unless noted, calls follow the shape of the dose curve; as a rule, active = well fitted curve in the direction sought with a large enough effect; inconclusive = small, poorly fitted or top-dose-only effect, or another doubt; inactive = no such curve, though single readings can be large; an effect the other way counts as inactive or inconclusive. Residues, ends and D or L forms follow the SMILES beside them.
# Columns and labels:
# [1] = Quantitative High-Throughput drug screen in 47 multiple myeloma cell lines against the NCATS MIPE library collection: RPMI8226_ATCC cell viability assay (AID 1919871); also: nearly all actives have a fitted effect of over 30% in size
# Procedure, shortened: (§1)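 Viability after 48 h drug exposure was measured as ATP-dependent luminescence. Cells, 500 per well, sat at 37 °C under 5% CO2; DMSO wells set 100%, media-only wells 0%.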
# [2] = Quantitative High-Throughput drug screen in 47 multiple myeloma cell lines against the NCATS MIPE library collection: OPM2_DSMZ cell viability assay (AID 1919872); also: nearly all actives have a fitted effect of over 30% in size
# Procedure, shortened: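 Steps: seed 500 cells per well; pin-transfer MIPE 4.0 library; incubate 48 h at 37C, 5% CO2, humidified; add CellTiter-Glo, 5 min room temperature; read luminescence.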
# [3] = Quantitative High-Throughput drug screen in 47 multiple myeloma cell lines against the NCATS MIPE library collection: KMS28BM_JCRB cell viability assay (AID 1919874); also: nearly all actives have a fitted effect of over 35% in size
# Procedure, shortened: as §1
# HaCat = test: Cytotoxic Profiling of Annotated Libraries Using Quantitative High-Throughput Screening (AID 1296008); details: Five cell lines viability, CellTiter-Glo ATP luminescence, 48-72 h; max response: hits give low values; also: nearly all actives have a fitted effect of over 60% in size; as to max response: % is scaled to controls: 0 for no effect and ±100 for the full control effect
# Procedure, shortened: (§2)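 Cells exposed to compounds for 48 or 72 hr at 37 degrees Celsius. Viability read as ATP-coupled luminescence with CellTiter-Glo after 10 min at room temperature.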
# [4] = Quantitative High-Throughput drug screen in 47 multiple myeloma cell lines against the NCATS MIPE library collection: UTMC2_PLB cell viability assay (AID 1919868); details: CellTiter-Glo ATP luminescence, 48 h; viability (% of DMSO control): at 45.8 µM (top of the series); also: nearly all actives have a fitted effect of over 55% in size
# Procedure, shortened: as §1
# [5] = Quantitative High-Throughput drug screen in 47 multiple myeloma cell lines against the NCATS MIPE library collection: PCM6_Riken cell viability assay (AID 1919870); details: CellTiter-Glo ATP, 48 h; viability (% of control): at 45.8 µM (top of the series); also: nearly all actives have a fitted effect of over 30% in size
# Procedure, shortened: as §1
# [6] = Quantitative High-Throughput drug screen in 47 multiple myeloma cell lines against the NCATS MIPE library collection: KMS11_JCRBsus cell viability assay (AID 1919873); also: nearly all actives have a fitted effect of over 50% in size
# Procedure, shortened: as §1
# [7] = qHTS for identification of novel therapeutic agents for treatment of microphthalmiaassociated transcription factor (MiT) renal cell carcinoma (RCC) (AID 1963991; calls by dose curve); details: TFE3-RCC UOK109 viability, CellTiter-Glo, 48 h; active = Z-AUC below -0.8 in all three lines
# Procedure, shortened: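 Viability of three TFE3-fusion renal carcinoma lines measured by CellTiter-Glo after 48 h treatment with each of 1912 compounds at 11 concentrations. Responses scaled between DMSO (100%) and empty wells (0%) before curve fitting.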
# KB-3-1 = test: Cytotoxic Profiling of Annotated Libraries Using Quantitative High-Throughput Screening (AID 1296008); details: Five cell lines viability, CellTiter-Glo ATP luminescence, 48-72 h; max response: hits give low values; also: nearly all actives have a fitted effect of over 60% in size; as to max response: % is scaled to controls: 0 for no effect and ±100 for the full control effect
# Procedure, shortened: as §2
# [8] = Quantitative High-Throughput drug screen in 47 multiple myeloma cell lines against the NCATS MIPE library collection: PE2_PLB cell viability assay (AID 1919869); also: nearly all actives have a fitted effect of over 35% in size
# Procedure, shortened: as §1
# NIH3T3 = test: Cytotoxic Profiling of Annotated Libraries Using Quantitative High-Throughput Screening (AID 1296008); details: Five cell lines viability, CellTiter-Glo ATP luminescence, 48-72 h; max response: hits give low values; also: nearly all actives have a fitted effect of over 60% in size; as to max response: % is scaled to controls: 0 for no effect and ±100 for the full control effect
# Procedure, shortened: as §2
# MCC-13 = test: qHTS assay to identify novel small-molecules to repurpose for Merkel cell carcinoma treatment (AID 1296009); details: MCC and control cell lines, CellTiter-Glo viability, 72 h; series mostly up to 46 µM; also: nearly all actives have a fitted effect of over 60% in size
# Procedure, shortened: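 Cells were incubated with compound for 72 hr at 37 degree celsius before CellTiter-Glo addition. Luminescence was normalized with no-cell wells as full cytotoxicity and DMSO as baseline.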
# Potency is read from the fitted curve at half-maximal effect.
structure (smiles),measurement,setting,value
N[C@H]1CN(c2c(F)cc3c(=O)c(C(=O)O)cn(C4C[C@@H]4F)c3c2Cl)CC12CC2 (some centres undefined),Potency,[1],"inconclusive: 1.48 µM [cytotoxic, partial curve, poor fit]"
same,Potency,[2],"inconclusive: 14.8 µM [cytotoxic, partial curve, poor fit]"
same,Potency,[3],inactive
same,Potency,HaCat,"inconclusive: 0.0073 µM [inhibitor, full curve, poor fit]"
CC[C@H]1OC(=O)[C@H](C)[C@@H](O[C@H]2C[C@@](C)(OC)[C@@H](O)[C@H](C)O2)[C@H](C)[C@@H](O[C@@H]2O[C@H](C)C[C@H](N(C)C)[C@@H]2O)[C@](C)(OC)C[C@@H](C)C(=O)[C@H](C)[C@@H](O)[C@]1(C)O,Potency,[4],inactive
same,Potency,[5],inactive
same,Potency,[6],"inconclusive: 5.26 µM [cytotoxic, partial curve, poor fit]"
same,Potency,[3],"inconclusive: 29.6 µM [cytotoxic, single point]"
same,Potency,[7],"inconclusive: 18.7 µM [falling, partial curve, poor fit]"
same,max response,KB-3-1,inactive: -5.56%
Cc1ccc(/C=N/NC(=O)c2ccccc2Oc2ccccc2)o1,Potency,[4],"inconclusive: 0.0013 µM [cytotoxic, full curve, poor fit]"
same,Potency,[8],"inconclusive: 14.8 µM [cytotoxic, partial curve]"
same,Potency,[5],"inconclusive: 16.6 µM [cytotoxic, partial curve]"
same,Potency,[1],"inconclusive: 3.32 µM [cytotoxic, full curve, poor fit]"
same,Potency,[3],"inconclusive: 7.43 µM [cytotoxic, full curve, poor fit]"
same,Potency,[7],"inconclusive: 13.2 µM [falling, partial curve]"
same,Potency,KB-3-1,"inconclusive: 37.2 µM [inhibitor, single point]"
Cc1ncc([N+](=O)[O-])n1CC(C)O (centres undefined),Potency,[8],"inconclusive: 26.4 µM [cytotoxic, partial curve, poor fit]"
same,Potency,[5],"inconclusive: 14.8 µM [cytotoxic, partial curve, poor fit]"
same,Potency,[1],"inconclusive: 0.372 µM [rising, partial curve, poor fit]"
same,Potency,[3],inactive
same,max response,NIH3T3,inactive: 2.47%
same,outcome,NIH3T3,inactive
Cc1cc(C(=O)NOCCO)c(Nc2ccc(I)cc2F)n(C)c1=O,Potency,[4],"inconclusive: 16.6 µM [cytotoxic, partial curve, poor fit]"
same,Potency,[8],"inconclusive: 0.935 µM [cytotoxic, partial curve, poor fit]"
same,Potency,[2],"inconclusive: 2.09 µM [cytotoxic, full curve]"
same,Potency,[7],"inconclusive: 0.235 µM [falling, full curve]"
same,Potency,NIH3T3,"inconclusive: 0.296 µM [inhibitor, full curve]"
same,Potency,MCC-13,"inconclusive: 0.187 µM [inhibitor, full curve]"
CCn1cc(C(=O)O)c(=O)c2cc(F)c(N3CCNCC3)nc21,Potency,[4],inactive
same,Potency,[8],"inconclusive: 0.0118 µM [rising, full curve, poor fit]"
same,Potency,[5],inactive
same,Potency,[6],"inconclusive: 18.7 µM [cytotoxic, single point]"
same,max response,KB-3-1,inactive: -1.65% and inactive: 0.264%
COC(=O)[C@H](Cc1ccccc1)NC(=O)[C@@H](N)CC(=O)O (H-Asp-Phe-OMe),Potency,[5],inactive
same,Potency,[1],"inconclusive: 18.7 µM [cytotoxic, partial curve, poor fit]"
same,Potency,[2],inactive
same,Potency,[6],"inconclusive: 20.9 µM [cytotoxic, partial curve, poor fit]"
same,Potency,[3],"inconclusive: 0.743 µM [cytotoxic, partial curve, poor fit]"
same,max response,KB-3-1,inactive: 0.426% and inactive: 2.8% and inactive: -6.99%
OCCCNc1cc(-c2ccnc(Nc3cccc(Cl)c3)n2)ccn1,Potency,[4],active: 0.0418 µM
same,Potency,[1],active: 0.187 µM
same,Potency,[7],active: 0.209 µM
same,Potency,NIH3T3,active: 166 nM and active: 580 nM
same,Potency,MCC-13,"inconclusive: 0.296 µM [inhibitor, full curve]"
O=C1NC(=O)C(=Cc2ccc3c(c2)OC(F)(F)O3)S1,Potency,[8],active: 20.9 µM
same,Potency,[1],"inconclusive: 0.372 µM [cytotoxic, full curve, poor fit]"
same,Potency,[6],inactive
same,Potency,[3],inactive
same,Potency,[7],inconclusive: 23.5 µM
same,Potency,KB-3-1,"inconclusive: 4.18 µM [inhibitor, partial curve]"
C#CCN[C@@H]1CCc2ccccc21,Potency,[4],"inconclusive: 2.35 µM [cytotoxic, full curve, poor fit]"
same,Potency,[5],"inconclusive: 5.26 µM [cytotoxic, full curve, poor fit]"
same,Potency,[2],inactive
same,Potency,HaCat,"inconclusive: 37.2 µM [inhibitor, single point]"
O=C(O)c1c(Cl)c(Cl)c(Cl)c(Cl)c1-c1c2cc(I)c(=O)c(I)c-2oc2c(I)c(O)c(I)cc12,Potency,[4],inactive
same,Potency,[5],active: 6.62 µM
same,Potency,[2],"inconclusive: 16.6 µM [cytotoxic, partial curve]"
same,Potency,[6],active: 6.62 µM
same,Potency,[3],"inconclusive: 16.6 µM [cytotoxic, partial curve]"
same,Potency,KB-3-1,"inconclusive: 16.4 µM [inhibitor, partial curve, poor fit] and inconclusive: 14.8 µM [inhibitor, partial curve, poor fit]"
same,Potency,MCC-13,"inconclusive: 5.9 µM [inhibitor, full curve, poor fit]"
CCCNC(=O)Nc1ccc(Oc2ncnc3cc(OC)c(OC)cc23)cc1Cl,Potency,[4],inactive
same,Potency,[6],"inconclusive: 14.8 µM [cytotoxic, partial curve]"
same,Potency,[3],"inconclusive: 16.6 µM [cytotoxic, partial curve, poor fit]"
same,Potency,KB-3-1,"inconclusive: 18.4 µM [inhibitor, single point]"
Cc1ccc(O)c(C(CCN(C(C)C)C(C)C)c2ccccc2)c1 (centres undefined),Potency,[4],"inconclusive: 0.0047 µM [rising, full curve, poor fit]"
same,Potency,[5],inactive
same,Potency,[2],inactive
same,Potency,[3],"inconclusive: 4.18 µM [cytotoxic, partial curve, poor fit]"
same,outcome,KB-3-1,inactive
Cc1c(O)cccc1C(=O)N[C@@H](CSc1ccccc1)[C@H](O)CN1C[C@H]2CCCC[C@@H]2C[C@@H]1C(=O)NC(C)(C)C,Potency,[7],"inconclusive: 20.9 µM [falling, partial curve]"
same,Potency,KB-3-1,"inconclusive: 37.2 µM [inhibitor, single point]"
O=C(O)c1ccc(-c2c[nH]c3ncc(-c4ccccc4)cc23)cc1C1CCCC1,Potency,[4],"inconclusive: 33.2 µM [cytotoxic, partial curve, poor fit]"
same,Potency,[8],"inconclusive: 18.7 µM [cytotoxic, partial curve]"
same,Potency,[1],inactive
same,Potency,[2],inactive
same,Potency,NIH3T3,"inconclusive: 4.69 µM [inhibitor, full curve]"
Cn1c(N2CCCCS2(=O)=O)nc(C(=O)NCc2ccc(F)cc2)c(O)c1=O,viability (% of DMSO control),[4],active: 149%
same,Potency,[3],"inconclusive: 6.62 µM [cytotoxic, partial curve, poor fit]"
same,Potency,HaCat,"inconclusive: 6.51 µM [inhibitor, single point]"
O=C(O)C=Cc1ccc(Cn2ccnc2)cc1,Potency,[4],inactive
same,Potency,[8],inactive
same,Potency,[6],"inconclusive: 0.0013 µM [rising, full curve, poor fit]"
same,outcome,KB-3-1,inactive
same,Potency,MCC-13,inactive
O=C(O)C1=CO[C@@H](O[C@@H]2O[C@H](CO)[C@H](O)[C@H](O)[C@H]2O)[C@@H]2C(CO)=CC[C@H]12,Potency,[4],"inconclusive: 0.833 µM [rising, full curve, poor fit]"
same,max response,NIH3T3,inactive: -17.7%
O=c1[nH]c(=O)n(C2CCCO2)cc1F (centres undefined),Potency,[4],inactive
same,Potency,[2],inactive
same,Potency,[3],"inconclusive: 0.0021 µM [rising, full curve, poor fit]"
same,Potency,HaCat,"inconclusive: 67.9 µM [inhibitor, single point]"
Cc1cccc(Nc2ccncc2S(=O)(=O)NC(=O)NC(C)C)c1,Potency,[4],inactive
same,Potency,[5],"inconclusive: 6.62 µM [cytotoxic, partial curve, poor fit]"
same,Potency,[1],"inconclusive: 23.5 µM [cytotoxic, partial curve, poor fit]"
same,Potency,[2],inactive
same,Potency,[6],"inconclusive: 1.05 µM [cytotoxic, full curve, poor fit]"
same,Potency,[3],"inconclusive: 0.0042 µM [cytotoxic, full curve, poor fit]"
same,max response,KB-3-1,inactive: -4.26% and inactive: -4.09%
same,max response,NIH3T3,inactive: 4.21% and inactive: -1.03%
O=c1cc(N2CCOCC2)oc2c(-c3cccc4c3sc3ccccc34)cccc12,Potency,[4],active: 5.9 µM
same,Potency,[1],"inconclusive: 20.9 µM [cytotoxic, partial curve]"
same,Potency,[2],"inconclusive: 26.4 µM [cytotoxic, single point]"
same,Potency,[7],"inconclusive: 20.9 µM [falling, partial curve]"
same,outcome,KB-3-1,inactive
same,Potency,NIH3T3,active: 16.6 µM
OC[C@H]1O[C@@H](Oc2ccc(O)cc2)[C@H](O)[C@@H](O)[C@H]1O,Potency,[8],"inconclusive: 18.7 µM [cytotoxic, partial curve, poor fit]"
same,Potency,[5],inactive
same,Potency,[2],inactive
same,Potency,[3],inactive
same,outcome,NIH3T3,inactive
same,Potency,MCC-13,inactive
CCCC(CCC)C(=O)O,Potency,[4],"inconclusive: 37.2 µM [cytotoxic, single point]"
same,Potency,[5],"inconclusive: 37.2 µM [cytotoxic, single point]"
same,Potency,[2],inactive
same,Potency,[3],inactive
same,Potency,[7],"inconclusive: 4.69 µM [falling, full curve]"
same,Potency,NIH3T3,"inconclusive: 37.2 µM [inhibitor, single point]"
same,max response,NIH3T3,inactive: 0.659%
CCNc1cc(NC2CCC(O)CC2)nc(Nc2ccc3c(ccn3Cc3ccccc3)c2)n1 (centres undefined),Potency,[1],"inconclusive: 26.4 µM [cytotoxic, single point]"
same,Potency,[2],"inconclusive: 26.4 µM [cytotoxic, single point]"
same,Potency,[3],"inconclusive: 26.4 µM [cytotoxic, single point]"
same,Potency,[7],"inconclusive: 20.9 µM [falling, partial curve, poor fit]"
same,Potency,KB-3-1,"inconclusive: 37.2 µM [inhibitor, single point]"
